No constants are given. Whether binding was seen depends on the method and setting. Binding seen in cells or lysates may run through a third protein.
Target: FLAG-UBR5 (Ubiquitin Protein Ligase E3 Component N-Recognin 5) (UniProt O95071)
Assay: co-IP; FLAG-tagged bait or vector expressed in HEK293T cells for 24 h (in some cases then poly (I:C) for 12 h); whole-cell extract in 150 mM NaCl, 50 mM Tris pH 7.5, 1 mM EDTA, 0.5% NP40, 10% glycerol; anti-FLAG magnetic beads overnight at 4 °C; eluted with 3x FLAG peptide; immunoblot

Chains of the proteins cited; added tags and fusions are not shown.
UniProt O95071: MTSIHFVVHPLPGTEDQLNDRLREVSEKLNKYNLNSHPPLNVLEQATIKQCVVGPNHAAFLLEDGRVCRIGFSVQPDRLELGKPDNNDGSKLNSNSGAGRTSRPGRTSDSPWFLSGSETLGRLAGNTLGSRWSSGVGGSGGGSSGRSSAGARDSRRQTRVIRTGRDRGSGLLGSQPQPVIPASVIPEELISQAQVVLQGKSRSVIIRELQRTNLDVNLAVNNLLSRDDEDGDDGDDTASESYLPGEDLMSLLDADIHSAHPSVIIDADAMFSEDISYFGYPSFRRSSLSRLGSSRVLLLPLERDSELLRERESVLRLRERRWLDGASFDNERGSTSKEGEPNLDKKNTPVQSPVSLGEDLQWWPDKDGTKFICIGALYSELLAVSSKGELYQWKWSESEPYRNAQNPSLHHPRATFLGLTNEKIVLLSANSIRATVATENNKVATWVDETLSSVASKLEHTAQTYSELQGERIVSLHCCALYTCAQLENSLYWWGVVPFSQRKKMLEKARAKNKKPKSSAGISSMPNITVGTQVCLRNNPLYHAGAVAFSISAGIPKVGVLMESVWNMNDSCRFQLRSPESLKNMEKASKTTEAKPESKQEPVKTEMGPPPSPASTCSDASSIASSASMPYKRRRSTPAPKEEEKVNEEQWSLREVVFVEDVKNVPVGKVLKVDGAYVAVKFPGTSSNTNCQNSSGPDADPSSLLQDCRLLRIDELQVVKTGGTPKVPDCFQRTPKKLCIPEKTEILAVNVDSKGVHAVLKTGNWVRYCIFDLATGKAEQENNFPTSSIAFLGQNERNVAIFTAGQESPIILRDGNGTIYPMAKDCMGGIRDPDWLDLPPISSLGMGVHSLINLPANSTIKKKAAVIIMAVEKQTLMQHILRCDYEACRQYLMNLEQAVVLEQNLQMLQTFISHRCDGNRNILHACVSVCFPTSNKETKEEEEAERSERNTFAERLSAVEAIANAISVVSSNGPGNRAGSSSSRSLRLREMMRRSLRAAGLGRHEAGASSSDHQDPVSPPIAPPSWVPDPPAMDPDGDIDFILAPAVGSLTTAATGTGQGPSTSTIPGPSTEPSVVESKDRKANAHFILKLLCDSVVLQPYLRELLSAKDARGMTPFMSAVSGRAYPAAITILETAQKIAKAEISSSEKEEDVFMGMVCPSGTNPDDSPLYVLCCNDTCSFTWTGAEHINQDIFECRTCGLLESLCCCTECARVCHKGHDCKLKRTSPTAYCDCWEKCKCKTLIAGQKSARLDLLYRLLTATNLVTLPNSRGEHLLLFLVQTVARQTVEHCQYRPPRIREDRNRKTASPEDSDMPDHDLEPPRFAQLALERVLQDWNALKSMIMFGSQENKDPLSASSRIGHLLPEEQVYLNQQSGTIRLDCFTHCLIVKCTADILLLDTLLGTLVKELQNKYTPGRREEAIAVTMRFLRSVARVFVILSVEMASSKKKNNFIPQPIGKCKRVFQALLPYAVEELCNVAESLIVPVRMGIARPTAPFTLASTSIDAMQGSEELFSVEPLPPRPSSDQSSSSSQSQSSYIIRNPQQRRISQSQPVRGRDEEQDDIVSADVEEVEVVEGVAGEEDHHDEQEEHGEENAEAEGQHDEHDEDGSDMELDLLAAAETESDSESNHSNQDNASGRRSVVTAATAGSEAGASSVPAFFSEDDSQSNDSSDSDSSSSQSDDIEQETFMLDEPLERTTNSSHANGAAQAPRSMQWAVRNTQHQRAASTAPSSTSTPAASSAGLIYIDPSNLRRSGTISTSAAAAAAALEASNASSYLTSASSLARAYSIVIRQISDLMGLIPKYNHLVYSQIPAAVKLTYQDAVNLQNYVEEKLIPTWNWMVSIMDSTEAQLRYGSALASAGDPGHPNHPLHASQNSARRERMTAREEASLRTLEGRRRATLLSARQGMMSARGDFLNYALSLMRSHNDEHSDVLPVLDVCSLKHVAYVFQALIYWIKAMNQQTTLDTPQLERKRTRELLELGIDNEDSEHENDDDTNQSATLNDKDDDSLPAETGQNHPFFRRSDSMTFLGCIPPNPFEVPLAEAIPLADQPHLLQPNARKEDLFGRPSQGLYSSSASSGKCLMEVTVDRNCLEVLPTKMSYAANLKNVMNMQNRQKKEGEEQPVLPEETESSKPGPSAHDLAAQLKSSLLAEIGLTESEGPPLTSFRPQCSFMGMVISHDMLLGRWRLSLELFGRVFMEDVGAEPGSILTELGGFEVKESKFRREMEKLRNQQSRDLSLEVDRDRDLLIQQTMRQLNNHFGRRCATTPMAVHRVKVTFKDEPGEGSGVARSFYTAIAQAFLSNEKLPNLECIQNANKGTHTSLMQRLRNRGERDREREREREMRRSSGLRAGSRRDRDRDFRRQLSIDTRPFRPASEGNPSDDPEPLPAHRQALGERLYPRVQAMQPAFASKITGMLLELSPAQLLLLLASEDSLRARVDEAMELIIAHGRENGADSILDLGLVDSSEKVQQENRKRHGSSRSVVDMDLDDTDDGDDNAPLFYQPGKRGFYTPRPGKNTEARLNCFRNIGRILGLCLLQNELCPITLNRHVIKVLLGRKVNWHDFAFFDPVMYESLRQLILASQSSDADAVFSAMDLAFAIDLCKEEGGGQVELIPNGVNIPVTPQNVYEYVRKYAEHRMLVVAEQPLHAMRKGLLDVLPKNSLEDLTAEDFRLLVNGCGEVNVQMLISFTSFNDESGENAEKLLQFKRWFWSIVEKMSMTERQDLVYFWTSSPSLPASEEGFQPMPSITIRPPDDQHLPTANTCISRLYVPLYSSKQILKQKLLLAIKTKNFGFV

binding: no binding
B1: IRF3 (protein, UniProt Q14653 1-427)
chain: MGTPKPRILPWLVSQLDLGQLEGVAWVNKSRTRFRIPWKHGLRQDAQQEDFGIFQAWAEATGAYVPGRDKPDLPTWKRNFRSALNRKEGLRLAEDRSKDPHDPHKIYEFVNSGVGDFSQPDTSPDTNGGGSTSDTQEDILDELLGNMVLAPLPDPGPPSLAVAPEPCPQPLRSPSLDNPTPFPNLGPSENPLKRLLVPGEEWEFEVTAFYRGRQVFQQTISCPEGLRLVGSEVGDRTLPGWPVTLPDPGMSLTDRGVMSYVRHVLSCLGGGLALWRAGQWLWAQRLGHCHTYWAVSEELLPNSGHGPDGEVPKDKEGGVFDLGPFIVDLITFTEGSGRSPRYALWFCVGESWPQDQPWTKRLVMVKVVPTCLRALVEMARVGGASSLENTVDLHISNSHPLSLTSDQYKAYLQDLVEGMDFQGPGES

Source: PMC10817939
